Results are given in words; binding and its absence hold for the method and conditions named. Binding seen in cells or lysates may run through a third protein. Some entries that bind do so weakly or less than the wild type. Sequences can lack the tags named with a protein.
T1: hRRP6 (human (endogenous in HEK293T)) (UniProt Q01780)
T1 sequence: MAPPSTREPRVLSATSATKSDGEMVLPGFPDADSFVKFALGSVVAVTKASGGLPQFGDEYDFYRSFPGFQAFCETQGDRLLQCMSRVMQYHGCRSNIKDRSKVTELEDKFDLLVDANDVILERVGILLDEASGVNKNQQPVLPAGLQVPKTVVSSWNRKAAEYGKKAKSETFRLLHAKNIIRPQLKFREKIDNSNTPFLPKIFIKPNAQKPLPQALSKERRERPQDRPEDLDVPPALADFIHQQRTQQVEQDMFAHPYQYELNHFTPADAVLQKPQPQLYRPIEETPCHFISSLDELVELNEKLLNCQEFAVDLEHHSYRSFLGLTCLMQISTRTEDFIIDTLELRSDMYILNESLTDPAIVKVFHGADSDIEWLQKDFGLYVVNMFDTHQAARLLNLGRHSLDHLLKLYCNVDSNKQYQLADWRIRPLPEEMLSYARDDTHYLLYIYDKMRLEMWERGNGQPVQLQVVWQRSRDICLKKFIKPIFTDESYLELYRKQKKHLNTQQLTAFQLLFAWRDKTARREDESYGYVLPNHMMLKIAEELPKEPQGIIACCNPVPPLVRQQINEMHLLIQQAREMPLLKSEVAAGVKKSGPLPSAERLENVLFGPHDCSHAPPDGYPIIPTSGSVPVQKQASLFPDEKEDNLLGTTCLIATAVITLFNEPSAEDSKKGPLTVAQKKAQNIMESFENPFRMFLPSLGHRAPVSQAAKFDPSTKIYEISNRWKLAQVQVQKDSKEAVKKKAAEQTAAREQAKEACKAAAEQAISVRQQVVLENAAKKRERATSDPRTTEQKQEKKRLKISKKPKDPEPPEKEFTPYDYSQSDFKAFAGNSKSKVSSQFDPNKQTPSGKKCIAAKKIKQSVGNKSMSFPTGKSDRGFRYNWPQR

T2: FLAG-Drosha (UniProt Q9NRR4)
T2 sequence: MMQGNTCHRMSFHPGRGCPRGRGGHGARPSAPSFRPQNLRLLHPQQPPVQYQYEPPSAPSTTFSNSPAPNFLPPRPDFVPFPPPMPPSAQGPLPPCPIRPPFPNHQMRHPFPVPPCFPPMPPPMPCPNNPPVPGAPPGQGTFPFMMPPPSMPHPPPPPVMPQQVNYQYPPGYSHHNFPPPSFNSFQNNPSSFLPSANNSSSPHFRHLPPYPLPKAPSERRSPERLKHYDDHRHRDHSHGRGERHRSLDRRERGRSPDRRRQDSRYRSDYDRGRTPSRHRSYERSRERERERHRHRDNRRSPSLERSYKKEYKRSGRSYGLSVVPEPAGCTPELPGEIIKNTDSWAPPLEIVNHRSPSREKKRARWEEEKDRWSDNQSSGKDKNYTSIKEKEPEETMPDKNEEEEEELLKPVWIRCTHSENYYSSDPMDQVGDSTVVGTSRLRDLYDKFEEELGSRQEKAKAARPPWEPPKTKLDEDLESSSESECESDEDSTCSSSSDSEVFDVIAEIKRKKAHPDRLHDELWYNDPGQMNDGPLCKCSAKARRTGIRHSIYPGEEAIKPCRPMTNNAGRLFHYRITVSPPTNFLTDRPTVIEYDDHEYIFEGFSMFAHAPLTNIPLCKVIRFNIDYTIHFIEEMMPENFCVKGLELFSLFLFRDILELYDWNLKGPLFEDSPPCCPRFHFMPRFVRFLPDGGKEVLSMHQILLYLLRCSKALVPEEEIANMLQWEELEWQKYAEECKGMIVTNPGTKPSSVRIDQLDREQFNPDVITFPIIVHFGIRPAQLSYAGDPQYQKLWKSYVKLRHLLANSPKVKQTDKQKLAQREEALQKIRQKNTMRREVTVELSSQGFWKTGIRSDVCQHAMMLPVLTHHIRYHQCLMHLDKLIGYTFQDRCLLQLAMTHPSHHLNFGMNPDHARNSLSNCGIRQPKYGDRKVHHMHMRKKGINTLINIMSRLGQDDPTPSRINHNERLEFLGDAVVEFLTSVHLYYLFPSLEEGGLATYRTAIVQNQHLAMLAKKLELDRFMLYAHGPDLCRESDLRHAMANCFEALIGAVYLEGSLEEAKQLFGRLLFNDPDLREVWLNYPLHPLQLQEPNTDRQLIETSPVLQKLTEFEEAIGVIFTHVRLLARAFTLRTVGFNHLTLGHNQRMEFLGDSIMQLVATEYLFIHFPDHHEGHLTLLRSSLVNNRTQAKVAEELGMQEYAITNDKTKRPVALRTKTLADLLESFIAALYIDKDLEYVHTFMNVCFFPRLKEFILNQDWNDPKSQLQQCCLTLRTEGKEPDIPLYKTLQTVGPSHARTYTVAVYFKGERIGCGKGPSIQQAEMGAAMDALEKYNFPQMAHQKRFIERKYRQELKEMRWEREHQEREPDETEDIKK

B1: V5-tagged wild-type DGCR8 (protein, UniProt Q8WYQ5 1-773)
chain: METDESPSPLPCGPAGEAVMESRARPFQALPREQSPPPPLQTSSGAEVMDVGSGGDGQSELPAEDPFNFYGASLLSKGSFSKGRLLIDPNCSGHSPRTARHAPAVRKFSPDLKLLKDVKISVSFTESCRSKDRKVLYTGAERDVRAECGLLLSPVSGDVHACPFGGSVGDGVGIGGESADKKDEENELDQEKRVEYAVLDELEDFTDNLELDEEGAGGFTAKAIVQRDRVDEEALNFPYEDDFDNDVDALLEEGLCAPKKRRTEEKYGGDSDHPSDGETSVQPMMTKIKTVLKSRGRPPTEPLPDGWIMTFHNSGVPVYLHRESRVVTWSRPYFLGTGSIRKHDPPLSSIPCLHYKKMKDNEEREQSSDLTPSGDVSPVKPLSRSAELEFPLDEPDSMGADPGPPDEKDPLGAEAAPGALGQVKAKVEVCKDESVDLEEFRSYLEKRFDFEQVTVKKFRTWAERRQFNREMKRKQAESERPILPANQKLITLSVQDAPTKKEFVINPNGKSEVCILHEYMQRVLKVRPVYNFFECENPSEPFGASVTIDGVTYGSGTASSKKLAKNKAARATLEILIPDFVKQTSEEKPKDSEELEYFNHISIEDSRVYELTSKAGLLSPYQILHECLKRNHGMGDTSIKFEVVPGKNQKSEYVMACGKHTVRGWCKNKRVGKQLASQKILQLLHPHVKNWGSLLRMYGRESSKMVKQETSDKSVIELQQYAKKNKPNLHILSKLQEEMKRLAEEREETRKKPKMSIVASAQPGGEPLCTVDV
B2: V5-tagged DGCR8 1-692 (domain or fragment, UniProt Q8WYQ5 1-692)
chain: METDESPSPLPCGPAGEAVMESRARPFQALPREQSPPPPLQTSSGAEVMDVGSGGDGQSELPAEDPFNFYGASLLSKGSFSKGRLLIDPNCSGHSPRTARHAPAVRKFSPDLKLLKDVKISVSFTESCRSKDRKVLYTGAERDVRAECGLLLSPVSGDVHACPFGGSVGDGVGIGGESADKKDEENELDQEKRVEYAVLDELEDFTDNLELDEEGAGGFTAKAIVQRDRVDEEALNFPYEDDFDNDVDALLEEGLCAPKKRRTEEKYGGDSDHPSDGETSVQPMMTKIKTVLKSRGRPPTEPLPDGWIMTFHNSGVPVYLHRESRVVTWSRPYFLGTGSIRKHDPPLSSIPCLHYKKMKDNEEREQSSDLTPSGDVSPVKPLSRSAELEFPLDEPDSMGADPGPPDEKDPLGAEAAPGALGQVKAKVEVCKDESVDLEEFRSYLEKRFDFEQVTVKKFRTWAERRQFNREMKRKQAESERPILPANQKLITLSVQDAPTKKEFVINPNGKSEVCILHEYMQRVLKVRPVYNFFECENPSEPFGASVTIDGVTYGSGTASSKKLAKNKAARATLEILIPDFVKQTSEEKPKDSEELEYFNHISIEDSRVYELTSKAGLLSPYQILHECLKRNHGMGDTSIKFEVVPGKNQKSEYVMACGKHTVRGWCKNKRVGKQLASQKILQLLHPHVKNWG
B3: V5-tagged DGCR8 276-773 (domain or fragment, UniProt Q8WYQ5 276-773)
chain: DGETSVQPMMTKIKTVLKSRGRPPTEPLPDGWIMTFHNSGVPVYLHRESRVVTWSRPYFLGTGSIRKHDPPLSSIPCLHYKKMKDNEEREQSSDLTPSGDVSPVKPLSRSAELEFPLDEPDSMGADPGPPDEKDPLGAEAAPGALGQVKAKVEVCKDESVDLEEFRSYLEKRFDFEQVTVKKFRTWAERRQFNREMKRKQAESERPILPANQKLITLSVQDAPTKKEFVINPNGKSEVCILHEYMQRVLKVRPVYNFFECENPSEPFGASVTIDGVTYGSGTASSKKLAKNKAARATLEILIPDFVKQTSEEKPKDSEELEYFNHISIEDSRVYELTSKAGLLSPYQILHECLKRNHGMGDTSIKFEVVPGKNQKSEYVMACGKHTVRGWCKNKRVGKQLASQKILQLLHPHVKNWGSLLRMYGRESSKMVKQETSDKSVIELQQYAKKNKPNLHILSKLQEEMKRLAEEREETRKKPKMSIVASAQPGGEPLCTVDV
B4: V5-tagged DGCR8 484-736 (domain or fragment, UniProt Q8WYQ5 484-736)
chain: PANQKLITLSVQDAPTKKEFVINPNGKSEVCILHEYMQRVLKVRPVYNFFECENPSEPFGASVTIDGVTYGSGTASSKKLAKNKAARATLEILIPDFVKQTSEEKPKDSEELEYFNHISIEDSRVYELTSKAGLLSPYQILHECLKRNHGMGDTSIKFEVVPGKNQKSEYVMACGKHTVRGWCKNKRVGKQLASQKILQLLHPHVKNWGSLLRMYGRESSKMVKQETSDKSVIELQQYAKKNKPNLHILSKLQ
B5: V5-tagged DGCR8 484-750 (domain or fragment, UniProt Q8WYQ5 484-750)
chain: PANQKLITLSVQDAPTKKEFVINPNGKSEVCILHEYMQRVLKVRPVYNFFECENPSEPFGASVTIDGVTYGSGTASSKKLAKNKAARATLEILIPDFVKQTSEEKPKDSEELEYFNHISIEDSRVYELTSKAGLLSPYQILHECLKRNHGMGDTSIKFEVVPGKNQKSEYVMACGKHTVRGWCKNKRVGKQLASQKILQLLHPHVKNWGSLLRMYGRESSKMVKQETSDKSVIELQQYAKKNKPNLHILSKLQEEMKRLAEEREETR
B6: V5-tagged DGCR8 484-773 (domain or fragment, UniProt Q8WYQ5 484-773)
chain: PANQKLITLSVQDAPTKKEFVINPNGKSEVCILHEYMQRVLKVRPVYNFFECENPSEPFGASVTIDGVTYGSGTASSKKLAKNKAARATLEILIPDFVKQTSEEKPKDSEELEYFNHISIEDSRVYELTSKAGLLSPYQILHECLKRNHGMGDTSIKFEVVPGKNQKSEYVMACGKHTVRGWCKNKRVGKQLASQKILQLLHPHVKNWGSLLRMYGRESSKMVKQETSDKSVIELQQYAKKNKPNLHILSKLQEEMKRLAEEREETRKKPKMSIVASAQPGGEPLCTVDV
B7: Fibrillarin (protein, UniProt P22087 1-321)
chain: MKPGFSPRGGGFGGRGGFGDRGGRGGRGGFGGGRGRGGGFRGRGRGGGGGGGGGGGGGRGGGGFHSGGNRGRGRGGKRGNQSGKNVMVEPHRHEGVFICRGKEDALVTKNLVPGESVYGEKRVSISEGDDKIEYRAWNPFRSKLAAAILGGVDQIHIKPGAKVLYLGAASGTTVSHVSDIVGPDGLVYAVEFSHRSGRDLINLAKKRTNIIPVIEDARHPHKYRMLIAMVDVIFADVAQPDQTRIVALNAHTFLRNGGHFVISIKANCIDSTASAEAVFASEVKKMQQENMKPQEQLTLEPYERDHAVVVGVYRPPPKVKN
B8: dyskerin (protein, UniProt O60832 1-514)
chain: MADAEVIILPKKHKKKKERKSLPEEDVAEIQHAEEFLIKPESKVAKLDTSQWPLLLKNFDKLNVRTTHYTPLACGSNPLKREIGDYIRTGFINLDKPSNPSSHEVVAWIRRILRVEKTGHSGTLDPKVTGCLIVCIERATRLVKSQQSAGKEYVGIVRLHNAIEGGTQLSRALETLTGALFQRPPLIAAVKRQLRVRTIYESKMIEYDPERRLGIFWVSCEAGTYIRTLCVHLGLLLGVGGQMQELRRVRSGVMSEKDHMVTMHDVLDAQWLYDNHKDESYLRRVVYPLEKLLTSHKRLVMKDSAVNAICYGAKIMLPGVLRYEDGIEVNQEIVVITTKGEAICMAIALMTTAVISTCDHGIVAKIKRVIMERDTYPRKWGLGPKASQKKLMIKQGLLDKHGKPTDSTPATWKQEYVDYSESAKKEVVAEVVKAPQVVAEAAKTAKRKRESESESDETPPAAPQLIKKEKKKSKKDKKAKAGLESGAEPGDGDSDTTKKKKKKKKAKEVELVSE

Target: T1, hRRP6 (human (endogenous in HEK293T))
Test: co-IP; HEK293T cells transfected with V5-tagged DGCR8 or truncations; immunoprecipitation of endogenous hRRP6, western blot with anti-V5

Row | Binder | binding
1 | B1 | binds
2 | B2 | binds
3 | B3 | binds weakly
4 | B4 | binds weakly
5 | B5 | binds weakly
6 | B6 | binds weakly

Target: T2, FLAG-Drosha
Test: co-IP; anti-T7 or anti-FLAG immunoprecipitation of overexpressed T7-DGCR8, FLAG-DGCR8, FLAG-Drosha (and T7-DGCR8 dRBD1&2 mut) from transfected HEK293T cells; western blot of endogenous partners; in the presence or absence of RNase A (Figure 1C)

Row | Binder | binding
7 | B7 | no binding
8 | B8 | no binding
